Measurements taken from PubChem BioAssay (EPA / NIEHS).
This list was built around the results that the source calls inconclusive (neither active nor inactive); the mix of calls is not that of the screen. A potency beside an inconclusive call is a rough fit, not a confirmed value. Activity calls are given as the source filed them. The calls were made as follows: active = hit-call score of the fitted dose curve at least 0.9, where 1 is the maximum; inconclusive = response in the unintended direction; inactive = score below 0.9.

The chains behind the UniProt entries cited, without tags or fusion partners. Where a name states a change or a piece, a line headed by the entry shows the natural chain unless it says otherwise.
UniProt Q01717: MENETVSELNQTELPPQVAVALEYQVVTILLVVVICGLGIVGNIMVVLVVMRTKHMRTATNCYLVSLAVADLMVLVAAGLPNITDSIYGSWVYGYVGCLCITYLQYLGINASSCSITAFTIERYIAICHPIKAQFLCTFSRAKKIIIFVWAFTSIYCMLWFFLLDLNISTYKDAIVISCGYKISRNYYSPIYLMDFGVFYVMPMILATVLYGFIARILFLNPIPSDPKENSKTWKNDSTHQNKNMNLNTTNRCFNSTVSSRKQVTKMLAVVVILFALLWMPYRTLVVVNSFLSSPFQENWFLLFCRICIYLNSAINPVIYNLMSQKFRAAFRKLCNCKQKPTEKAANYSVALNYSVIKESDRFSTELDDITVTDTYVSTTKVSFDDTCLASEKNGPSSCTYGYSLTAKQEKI

target: rat Thyrotropin Releasing Hormone Receptor (TRH), Trhr (gene 25570) (UniProt Q01717); test: NVS_GPCR_rTRH: NovaScreen (NVS) G Protein-Coupled Receptor Assay for rat Thyrotropin Releasing Hormone Receptor (TRH) (AID 2283329);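 also: hit means lower bound tracer signal versus DMSO baseline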
In short: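 Cell-free radioligand binding on rat forebrain membranes; bound tracer measured by filter-based scintillation counting 4 hours after dosing. Loss of signal versus DMSO baseline indicates displacement; primary screen at 25 uM in duplicate, actives then run in concentration series.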

Compound	AC50	outcome
CC(C)c1cccc(O)c1	inconclusive: 4.1 µM	
O=CCCCC=O	inconclusive: 6.67 µM	
Cc1ccc(C(C)c2ccc(C)c(C)c2)cc1C		inactive
C1=Cc2ccccc2C1	inconclusive: 0.0234 µM	
N#Cc1ccccc1O	inconclusive: 0.772 µM	
Cc1cc(C)c(C)cc1C		inactive
c1ccc(Cc2ccccc2)cc1	inconclusive: 0.0245 µM	
Cc1cc(C)c(C(=O)O)c(C)c1	inconclusive: 1.87 µM	
CCCCCCC=O		inactive
c1c[nH]cn1		inactive
O=C(OCCOCCOCCOC(=O)c1ccccc1)c1ccccc1	inconclusive: 25 µM	
CC(C)c1ccc2c(C(C)C)cc(C(C)C)c(S(=O)(=O)O)c2c1	inconclusive: 25 µM	
CCCCCc1ccc(Cl)cc1		inactive
CC(C)c1ccc2cc(C(C)C)ccc2c1	inconclusive: 25 µM	
CC1(C)NC(=O)N(c2ccc([N+](=O)[O-])c(C(F)(F)F)c2)C1=O	inconclusive: 25 µM	
CC(=O)CC(=O)N(C)C	inconclusive: 1.03 µM	
CCCCCCCCC	inconclusive: 1.65 µM	
C=C1C2CCC(C2)C1(C)C (stereo not given)		inactive
NC(=O)c1ccccc1O		inactive
O=C(C(Cl)Cl)N1CCOC12CCCCC2	inconclusive: 0.788 µM	

Compound	AC50	outcome
O=c1cc(-c2ccccc2)oc2ccccc12	inconclusive: 6.26 µM	
OC1CCC(C2CCCCC2)CC1 (stereo not given)	inconclusive: 6.93 µM	
OCCN1CCNCC1		inactive
CCCCCCCCCCCCCCCC(=O)OC[C@H](O)[C@H]1OC(=O)C(O)=C1O	inconclusive: 25 µM	
O=c1cc(-c2ccc(O)cc2)oc2cc(O)cc(O)c12	inconclusive: 1.69 µM	
CC(=O)OC(C)(C)C	inconclusive: 0.0599 µM	
OCCOCCOCCOCCO		inactive
C=CC(C)(CCC=C(C)C)OC(C)=O (stereo not given)	inconclusive: 0.629 µM	
CCN=c1cc2oc3cc(NCC)c(C)cc3c(-c3ccccc3C(=O)OCC)c-2cc1C		inactive
O=C(c1ccccc1)c1ccc(O)cc1O		inactive
CCCCCCC1(C)CCC(=O)O1 (stereo not given)	inconclusive: 0.244 µM	
CCCCCCC(C)O (stereo not given)	inconclusive: 4.25 µM	
CC(C)C1=CC2=CC[C@@H]3[C@](C)(CCC[C@@]3(C)C(=O)O)[C@H]2CC1		inactive
O=C1CCCCC1		inactive
CC(C)(C)c1ccc(N)cc1		inactive
CC(=O)Oc1c(C)c(C)c2c(c1C)CC[C@@](C)(CCC[C@H](C)CCC[C@H](C)CCCC(C)C)O2	inconclusive: 25 µM	
O=C(O)CS	inconclusive: 25 µM	
O=C(c1ccccc1)C1CCCCC1		inactive
O=C(O)c1cccc(C(=O)O)n1		inactive
CCCCCCCCCCCC(=O)OCC(O)CO (stereo not given)		inactive

Structures shown so far with a tert-butyl group, in the order listed:
Compound	AC50	outcome
CC(=O)OC(C)(C)C	inconclusive: 0.0599 µM	
CC(C)(C)c1ccc(N)cc1		inactive
